From the supplement of paper PMC12067093, “Discovery and optimisation of a covalent ligand for TRIM25 and its application to targeted protein ubiquitination” (Chemical Science, 2025)
This is one part of the list.

Compound: Cc1cc(ccc1-c1ccccc1)C(=O)N1CCCN(CC1)C(=O)CCl [compound 10]
Experiment: probe-labelled cysteine peptide fold change vs DMSO (competition) (log2 fold change); higher = less target engagement (more negative = stronger competition)
Settings: THP-1, incubation time: 4 h
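Also: competitive profiling in live THP-1 cells: cysteine peptides tagged with an iodoacetamide desthiobiotin (IA-DTB) probe, intensity after compound treatment relative to DMSO-treated cells.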

Row | Target | probe-labelled cysteine peptide fold change (10 µM) | probe-labelled cysteine peptide fold change (50 µM)
1 | PIGA_P37287_348_VGGIPEVLPENLIILCEPSVK (UniProt P37287) | 0.0255 | -0.199
2 | PEPD_P12955_158_GVNTDSGSVCR (UniProt P12955) | -0.0905 | -0.0716
3 | PHKA1_P46020_24_LVQQTILCHQNPVTGLLPASYDQK (UniProt P46020) | -0.175 | -0.254
4 | PECAM1_P16284_256_CTIQVTHLAQEFPEIIIQK (UniProt P16284) | -0.0253 | -0.188
5 | PHLPP1_O60346_1028_CVPLLTGHPHLK (UniProt O60346) | 0.0875 | 0.696
6 | PGGT1B_P53609_131_APGTAHPYDSGHIAMTYTGLSCLVILGDDLSR (UniProt P53609) | 0.242 | 0.21
7 | PHF6_Q8IWS0_242_CMLFSSGTVQLTTTSR (UniProt Q8IWS0) | -0.00964 | 0.0332
8 | PFKL_P17858_708_VFANAPDSACVIGLKK (UniProt P17858) | -0.122 | -0.191
9 | PEX14_O75381_342_MEVQGEEEKREDKEDEEDEEDDDVSHVDEEDCLGVQR (UniProt O75381) | -0.196 | -0.48
10 | PHIP_Q8WWQ0_522_CSPDGQHFACTDSHGHLLIFGFGSSSK (UniProt Q8WWQ0) | 0.205 | 0.11
11 | PIK3CD_O00329_355_LVVQAGLFHGNEMLCK (UniProt O00329) | 0.0869 | 0.075
12 | PHF8_Q9UPP1_86_AADIDLYHCPNCEVLHGPSIMK (UniProt Q9UPP1) | -8.84e-05 | -0.0911
13 | PGP_A6NDG6_193_YLQQPGCLLVGTNMDNR (UniProt A6NDG6) | 0.0138 | 0.0531
14 | PIAS1_O75925_335_VSLLCPLGK (UniProt O75925) | 0.122 | -0.127
15 | PFKFB3_Q16875_387_QENVLVICHQAVLR (UniProt Q16875) | 0.168 | 0.336
16 | PHF14_O94880_754_LHYHLGCLDPPLTR (UniProt O94880) | -0.0058 | -0.0102
17 | PIAS1_O75925_402_YCTDCDEIQFK (UniProt O75925) | -0.0248 | -0.163
18 | PFN1_P07737_17_AGWNAYIDNLMADGTCQDAAIVGYK (UniProt P07737) | -0.117 | 0.0741
19 | PIAS3_Q9Y6X2_620_EGHGGPLPSGPSLTGCR (UniProt Q9Y6X2) | 0.192 | 0.654
20 | PI4KA_P42356_1215_DCDPQLLHHLCWGPLR (UniProt P42356) | 0.181 | 0.179
21 | PHF6_Q8IWS0_82_LMCSLCHCPGATIGCDVK (UniProt Q8IWS0) | 0.283 | 0.172

Row | Target | probe-labelled cysteine peptide fold change (10 µM) | probe-labelled cysteine peptide fold change (50 µM)
22 | PHF1_O43189_327_CLFGLHAR (UniProt O43189) | -0.212 | -0.309
23 | PIGH_Q14442_166_LDCLIEVYR (UniProt Q14442) | -0.0537 | 0.0701
24 | PHF6_Q8IWS0_212_CGFCHVGEEENEAR (UniProt Q8IWS0) | 0.14 | -0.1
25 | PFAS_O15067_975_DAGLHCLELGHTGEAGPHAMVR (UniProt O15067) | -0.00673 | -0.104
26 | PHGDH_O43175_19_KVLISDSLDPCCR (UniProt O43175) | -0.213 | -0.743
27 | PHYH_O14832_205_NNGCLVVLPGTHK (UniProt O14832) | 0.163 | 0.091
28 | PFAS_O15067_831_APGSLVISAYAVCPDITATVTPDLK (UniProt O15067) | -0.133 | -0.221
29 | PGK1_P00558_380_GCITIIGGGDTATCCAK (UniProt P00558) | 0.0121 | -0.0333
30 | PHF6_Q8IWS0_212+215_CGFCHVGEEENEAR (UniProt Q8IWS0) | 0.155 | -0.762
31 | PGAM5_Q96HS1_229_ADARQEEDSYEIFICHANVIR (UniProt Q96HS1) | -0.217 | -0.374
32 | PHPT1_Q9NRX4_69+71_QGCDCECLGGGR (UniProt Q9NRX4) | -0.0253 | -0.281
33 | PFKFB3_Q16875_155_AFFIESVCDDPTVVASNIMEVK (UniProt Q16875) | 0.0401 | 0.00669
34 | PGP_A6NDG6_272_LDTDILLGATCGLK (UniProt A6NDG6) | 0.0876 | 0.334
35 | PEX11B_O96011_25_AAQYACSLLGHALQR (UniProt O96011) | 0.166 | 0.0421
36 | PEX11B_O96011_18+25_LCRAAQYACSLLGHALQRHGASPELQK (UniProt O96011) | 0.0027 | -0.126
37 | PHF5A_Q7RTV0_11_HHPDLIFCR (UniProt Q7RTV0) | -0.112 | -0.0226
38 | PGD_P52209_199_MVHNGIEYGDMQLICEAYHLMK (UniProt P52209) | 0.181 | 0.029
39 | PHPT1_Q9NRX4_71+73_QGCDCECLGGGR (UniProt Q9NRX4) | 0.0867 | -0.192
40 | PIAS4_Q8N2W9_50_ALQLVQFDCSPELFK (UniProt Q8N2W9) | -0.0498 | 0.0618
41 | PHF14_O94880_471_AYFHVTCAQK (UniProt O94880) | 0.15 | 0.39
42 | PIAS3_Q9Y6X2_366_KPTWTCPVCDK (UniProt Q9Y6X2) | 0.072 | 0.0584

Row | Target | probe-labelled cysteine peptide fold change (10 µM) | probe-labelled cysteine peptide fold change (50 µM)
43 | PHPT1_Q9NRX4_69_QGCDCECLGGGR (UniProt Q9NRX4) | -0.0247 | 0.0348
44 | PI4KA_P42356_58_LLCMCPVDFHGIFQLDER (UniProt P42356) | 0.076 | -0.137
45 | PI4K2A_Q9BTU6_320_YDCPMDSSSSR (UniProt Q9BTU6) | -0.0602 | -0.277
46 | PEX5_P50542_11_ELVEAECGGANPLMK (UniProt P50542) | -0.0314 | -0.0959
47 | PHF14_O94880_495_EGLLSEAAAEEDIADPFFAYCK (UniProt O94880) | -0.0135 | 0.6
48 | PGK1_P00558_367+379_GCITIIGGGDTATCCAK (UniProt P00558) | 0.296 | -0.173
49 | PGLS_O95336_78_WTLGFCDER (UniProt O95336) | 0.0732 | 0.168
50 | PEX14_O75381_342_REDKEDEEDEEDDDVSHVDEEDCLGVQR (UniProt O75381) | 0.213 | 0.344
51 | PEBP1_P30086_133_YVWLVYEQDRPLKCDEPILSNR (UniProt P30086) | -0.314 | -0.84
52 | PGD_P52209_289_CLSSLKDER (UniProt P52209) | -0.0918 | -0.7
53 | PIK3CD_O00329_382_QRLEFDINICDLPR (UniProt O00329) | -0.0788 | 0.232
54 | PGP_A6NDG6_217_FIAGTGCLVR (UniProt A6NDG6) | 0.0649 | 0.0408
55 | PGAM1_P18669_55_DAGYEFDICFTSVQK (UniProt P18669) | 0.0908 | 0.0962
56 | PEX19_P40855_229_ICEQFEAETPTDSETTQK (UniProt P40855) | 0.283 | -0.035
57 | PFKFB3_Q16875_387_LEPVIMELERQENVLVICHQAVLR (UniProt Q16875) | 0.209 | -0.0964
58 | PGD_P52209_171_VGTGEPCCDWVGDEGAGHFVK (UniProt P52209) | -0.171 | -0.741
59 | PIK3CB_P42338_287_ALPHFILVECCK (UniProt P42338) | -0.174 | -0.88
60 | PI4K2A_Q9BTU6_124_CIFPER (UniProt Q9BTU6) | 0.154 | 0.216
61 | PIK3C3_Q8NEB9_476_EVPDGENLEQDLCTFLISR (UniProt Q8NEB9) | 0.232 | 0.0723
62 | PGK1_P00558_367+379+380_GCITIIGGGDTATCCAK (UniProt P00558) | 0.425 | -0.635
63 | PIK3CD_O00329_416_ADCPIAWANLMLFDYK (UniProt O00329) | 0.419 | 0.323

Row | Target | probe-labelled cysteine peptide fold change (10 µM) | probe-labelled cysteine peptide fold change (50 µM)
64 | PHF6_Q8IWS0_107_TYHYHCALHDK (UniProt Q8IWS0) | -0.0769 | -0.0881
65 | PHYH_O14832_145_YVECFTGPNIMAMHTMLINKPPDSGKK (UniProt O14832) | -0.0633 | -0.302
66 | PIGT_Q969N2_182_EVVCTENLTPWKK (UniProt Q969N2) | -0.128 | -0.12
67 | PIK3CD_O00329_132_GLHEFDSLCDPEVNDFR (UniProt O00329) | -0.0244 | -0.215
68 | PGLS_O95336_237_LCWFLDEAAAR (UniProt O95336) | -0.0326 | -0.0213
69 | PHF6_Q8IWS0_20_KCGFCK (UniProt Q8IWS0) | -0.0505 | -0.884
70 | PHF6_Q8IWS0_305_TYHYHCGVQDK (UniProt Q8IWS0) | -0.0169 | 0.0111
71 | PHIP_Q8WWQ0_1382_ETLEAGNYESPMELCK (UniProt Q8WWQ0) | -0.108 | -0.00466
72 | PGGT1B_P53609_369_QCSENVHIST (UniProt P53609) | -0.166 | -0.254
73 | PIGT_Q969N2_272_TLTEPCPLASESR (UniProt Q969N2) | -0.0656 | 0.264
74 | PHF2_O75151_50_DWFHGSCVGVEEEEAPDIDIYHCPNCEK (UniProt O75151) | -0.049 | -0.387
75 | PHF6_Q8IWS0_94_LMCSLCHCPGATIGCDVK (UniProt Q8IWS0) | -0.125 | -0.21
76 | PFAS_O15067_108_LNFSTPTSTNIVSVCR (UniProt O15067) | 0.275 | 0.139
77 | PFKFB3_Q16875_440_VESIYLNVESVCTHR (UniProt Q16875) | 0.309 | 0.312
78 | PGK1_P00558_367_GCITIIGGGDTATCCAK (UniProt P00558) | 0.0756 | -0.00293
79 | PFAS_O15067_1044_MGPSYCLPPTFPK (UniProt O15067) | -0.165 | 0.101
80 | PHYKPL_Q8IUZ5_416_FKPPMCFSLDNAR (UniProt Q8IUZ5) | 0.0387 | -0.103
81 | PHF14_O94880-2_607+612_LCYHFGCLDPPLK (UniProt O94880) | -0.0595 | -0.438
82 | PHIP_Q8WWQ0_28_FLEDGPCQQAAQVLIR (UniProt Q8WWQ0) | 0.0847 | 0.146
83 | PIK3CB_P42338_551_EILDRDPLSQLCENEMDLIWTLR (UniProt P42338) | -0.101 | -0.0111
